Assay results as given in article PMC3932521.
No constants are given. Whether binding was seen depends on the method and setting.

Sequences of proteins named here, by UniProt entry; tags and fusion partners are left off. A change or cut given only in a name is not applied to a line headed by its entry.
UniProt A0A3Q2ICL5: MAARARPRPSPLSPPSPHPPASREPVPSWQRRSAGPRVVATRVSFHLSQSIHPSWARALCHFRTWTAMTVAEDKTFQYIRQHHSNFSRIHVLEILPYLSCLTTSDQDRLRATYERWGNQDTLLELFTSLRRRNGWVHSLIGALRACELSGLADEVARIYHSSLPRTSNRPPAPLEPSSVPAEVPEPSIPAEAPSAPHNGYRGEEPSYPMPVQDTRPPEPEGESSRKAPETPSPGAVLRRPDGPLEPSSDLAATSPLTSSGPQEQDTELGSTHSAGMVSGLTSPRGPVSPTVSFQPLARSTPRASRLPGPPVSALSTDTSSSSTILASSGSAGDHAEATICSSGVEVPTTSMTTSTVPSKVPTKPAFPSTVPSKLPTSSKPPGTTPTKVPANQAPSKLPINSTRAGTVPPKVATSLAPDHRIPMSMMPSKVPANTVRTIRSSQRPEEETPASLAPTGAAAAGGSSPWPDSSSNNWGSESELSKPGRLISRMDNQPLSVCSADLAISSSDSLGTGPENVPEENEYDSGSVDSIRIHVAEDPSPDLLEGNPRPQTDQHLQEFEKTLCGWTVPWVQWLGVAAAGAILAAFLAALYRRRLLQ

Target: horse MAVS CARD E26R (horse)
Assay: SEC; gel filtration of CARD mutants purified from E. coli; a homogenous monomeric peak counts as soluble; both purified

binding: no binding
Substance: horse MAVS CARD E26R (from UniProt A0A3Q2ICL5 68-161) (domain or fragment)
